Data source: PubChem BioAssay AID1259405 (NCATS, 2018)
This is a random part of about 50,000 reagents tested. About 4,000 of all reagents (8%) count as active. 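Mouse siRNA library applied to hamster cells; one well for each siRNA.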 Unmarked entries are inactive. The numbers tell different reagents against one gene apart. Further read-outs or replicates are left out here. Reagent sequences are not shown.

- Aim: 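Knock-downs that lift recombinant protein yield in hamster ovary cells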 (primary screen)
- Cell system: Chinese hamster CHO-K1 ovary cells with stable secreted eGFP expression
- Reagent: single siRNA against mouse genes, 0.8 pmol siRNA per well (2 µl of 400 nM stock)
- Timing: 3 days
- Measured: 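Per-well intracellular GFP measured by laser scanning cytometry, plus viability from ATP luminescence, each relative to plate median of non-targeting control wells, in %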
- Scale: GFP, % of control: higher = more GFP per well, higher productivity
- Call rule: 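Called active when intracellular GFP, relative to negative control, is at or above 120%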

GFP, % of control, by gene and reagent
Tmprss12: #1 80.6; #2 58
Apol7a: #1 58.4; #2 87.5; #3 78.2
Syt9: #1 90.3; #2 66.4
Glul: #1 87.5; #2 87.8; #3 52.6
Cldn19: #1 123 (active); #2 97.3; #3 86.1
Zfp275: #1 34.6; #2 44.7; #3 23.8
Pdpk1: #1 63.2
Mllt11: #1 47.3; #2 85.2; #3 56.5
Dnal1: #1 111; #2 77.4; #3 77.4
Nop9: #1 73; #2 70.8; #3 73.8
Slc39a3: #1 60.4; #2 37.7; #3 85
Pck1: #1 75; #2 75; #3 60.7
Or10ag58: #1 81.3; #2 85; #3 96.5
Casp9: #1 76.1; #2 41.5; #3 63.9
Capn6: #1 125 (active); #2 110
Tia1: #1 71.2; #2 85.9; #3 130 (active)
Mysm1: #1 77.4; #2 137 (active)
Slc15a3: #1 84.8; #2 70; #3 75.7
Coq8a: #1 70.1; #2 69.5; #3 120
Cdc5l: #1 55; #2 97.3
Ggct: #1 63.4; #2 83.6; #3 74.5
Zfp329: #1 81.1; #2 102; #3 87.3
Zdhhc25: #1 52.6; #2 60.5; #3 23
Tox: #1 99.9; #2 49.6; #3 109
Rfwd3: #1 66.7; #2 68; #3 93.1
Capza2: #1 51.6; #2 63.6; #3 51.6
Dtnb: #1 140 (active); #2 47.1
Bhmt: #1 88.1; #2 90.3; #3 71.6
Ibtk: #1 83.2; #2 59.4; #3 78.3
Bpifb3: #1 67.7; #2 62.1; #3 50.5
Cacna1c: #1 60.4; #2 108; #3 55
Or9a7: #1 49.2; #2 133 (active); #3 99.3
Kctd12b: #1 44.7; #2 105; #3 78.5
Myo1d: #1 93.2; #2 63; #3 86.7
Tpm1: #1 29; #2 55.1; #3 92
Rnase2b: #1 96.7; #2 83.5; #3 71.2
Celf2: #1 82.1; #2 98.5; #3 79.8; #4 77.4; #5 85.1; #6 45.3
Phlda2: #1 67.6; #2 79.8; #3 84.4

Laid out differently: results already given
gene	reagent	GFP, % of control
Rfwd3	2	68
Rfwd3	3	93.1
Capza2	1	51.6
Capza2	2	63.6
Capza2	3	51.6
Dtnb	1	140 (active)
Dtnb	2	47.1
Bhmt	1	88.1
Bhmt	2	90.3
Bhmt	3	71.6
Ibtk	1	83.2
Ibtk	2	59.4
Ibtk	3	78.3
